Test results reported in US20250057930A1, “ANAPLASTIC LYMPHOMA KINASE (ALK) CANCER VACCINES AND METHODS OF USE THEREOF” (The Children's Medical Center Corporation, priority 2022, published 2025).
Part of at least one peptide drawing is inferred or uncertain, most often the ends. Ends that are not written are not given here.

Columns and labels:
[1] = test system: ALK-specific CD8+ T cells; assay: Vaccination of HLA B*07:02 transgenic mice, IFN-γ ELISPOT of splenocytes; type: in vivo, mouse; conditions: short and long peptide groups pooled, of 12 mice
Source text: Transgenic mice expressing the human HLA B*07:02 were vaccinated with different peptides containing the core epitopes […] (SEQ ID NO: 4) or […] (SEQ ID NO: 3): […] (SEQ ID NO: 4) (IVRshort), […] (SEQ ID NO: 1) (IVRlong), […] (SEQ ID NO: 3) (RPRshort), […] (SEQ ID NO: 2) (RPRlong). ALK-specific CD8+ T cells responses were detected in 12/12 (100%) mice vaccinated with either the IVRshort peptide or the IVRlong peptide and in 6/12 (50%) of mice vaccinated with either the PRPshort peptide or the RPRlong (FIG. 7D). Finally, ALK-specific CD8+ T cells responses were also detected in peripheral blood mononuclear cells (PBMCs) from 3/6 (50%) ALK+ NSCLC patients when stimulated with the […] (SEQ ID NO: 4) peptide but not with the […] (SEQ ID NO: 3) peptide (FIGS. 7E and 16B; Tables 6-7). Overall, four immunogenic ALK peptides in the context of the HLA A*02:01 and B*07:02 alleles were identified by mass spectrometry that can pave the way toward the design of a human ALK vaccine.
The interferon-γ release enzyme-linked immune absorbent spot (ELISPOT) assay was performed using a commercial kit (Mouse IFN-γ ELISPOT, Mabtech, Stockholm, Sweden) according to the manufacturer's instructions. Briefly, the ELISPOT plate was prepared in sterile conditions and washed with sterile PBS (200 μL/well) for 5 times. […] All plates were evaluated by a computer assisted ELISPOT reader (CTL Immunospot analyzer, OH, USA).

[2] = test system: CD8^+ T cells from NSCLC patients; assay: IFN-γ ELISPOT of patient CD8^+ T cells expanded with ALK peptides; type: cell-based, human
Protocol: Non-small cell lung cancer (NSCLC) patients, at the Dana-Farber Cancer Institute, consented to an institutional review board (IRB)-approved correlative research protocol that allowed for review of medical records and sample collection. Lung cancer mutation status was determined using standard CLIA-certified clinical assays in the Center for Advanced Molecular Diagnostics at Brigham and Women's Hospital. For each patient, 10 mL of whole blood was collected into K3-EDTA tubes, and peripheral blood mononuclear cells (PBMCs) (peripheral blood mononuclear cells) were isolated with Ficoll-Paque Plus density separation (GE Healthcare), and consequently frozen until use.
Frozen PBMCs from patients with NSCLC were thawed, resuspended in cold RPMI containing 3% of human AB heat-inactivated serum (Sigma Aldrich), and cultured in a T-175 culture flask for 50 min. at 37° C. in 5% C02 to induce the attachment of CD14^+ monocytes to the plastic. The remaining floating PBMCs were removed with gentle washes of PBS and warm media. Monocytes were then cultured in RPMI containing 3% of human AB heat-inactivated serum, 2% Penicillin/Streptomycin, 1% Glutamine, and 25 nM HEPES with GM-CSF (120 ng/mL, Preprotech) and IL-4 (70 ng/mL, Preprotech). Fresh GM_CSF and IL-4 were added on days 3 and 5. On day 6, Poly I:C (30 μg/mL, Sigma Aldrich) was added for 24 hours to induce DCs maturation.
B cells were expanded using the CD40 system (68,69). Briefly, NIH-3T3-CD40L cells were irradiated (9600 rads) and plated in a 6 well plate (400.000 cells/well) without Gentamycin. The following day, 8×10^6 PBMCs were resuspended in 4 mL of IMDM (Glutamine, Hepes, Gibco) containing 10% human AB serum heat-inactivated (Sigma Aldrich), Transferrin (50 μg/ml, Lonza), Insulin (5 μg/ml, BioXtra), Cyclosporine A (5.5×10^−7M, Sigma Aldrich), IL-4 (2 ng/ml, Preprotech) and Gentamycin (15 μg/ml, Gibco), and co-cultured with the irradiated NIH-3T3-CD40L for 5 days. PBMCs were then counted and cultured at the same concentration together with newly irradiated NIH-3T3-CD40L for 3 more days. After 12 days 95% of the cells were CD19^+ and could be expanded similarly every 3-4 days at a concentration of 10^6/mL. B cells were always used after 15 days of culture.
CD8^+ T cells were purified using magnetic beads (CD8^+ T cell isolation Kit, Miltenyi) and co-cultured with DCs (20:1; around 10^6 CD8^+ T cells:50.000 DCs) in AIM V media (Gibco) with 5% human AB heat-inactivated serum (Sigma Aldrich), 20 units/mL IL-2 (Preprotech) and 10 ng/mL IL-7 (Preprotech). Before co-culture, DCs were pulsed with the 10 μg/mL of the desired peptide in AIM V media without serum at 37° C. in 5% CO2. Fresh IL-2 and IL-7 were added every 3-4 days. After 7 days, 3-4 million PBMCs CD8^+ T cells were co-cultured with peptide-pulsed DCs and cytokines (20-40:1 ratio). 3rd and 4th stimulation stimulations were done using 4-5 million CD8^+ T cells and peptide-pulsed irradiated B cells (ratio 4:1, 3000 rads) and fresh IL2 and IL7 (days 14 and 21). CD8^+ T-cell responses were then evaluated in an IFN-γ-ELISPOT assay (Mabtech) using peptide-pulsed B cells (1:1 ratio) as target cells. CD8^+ T cells were purified the day before the ELISPOT assay and rested overnight in media without cytokines. The ELISPOT was performed with FBS heat inactivated as recommended by the manufacturer. When the human material was limited, PBMCs or B0 cells were used in the first round of stimulation.

[3] = test system: ALK-specific immune responses; conditions: Passoni et al., Blood 2002; cited from earlier work

## IVRCIGVSL
[1]
  mice with ALK-specific CD8+ T cells responses detected: 100%
[2]; 3/6 patients
  ALK+ NSCLC patients with ALK-specific CD8+ T cells responses in PBMCs: 50%
[2]; Patient 1 (ALK), IVRCIGVSL expanded
  Average Spots Forming Units (2 wells)/20 000 CD8^+ T cells: 24 Spots Forming Units/20 000 CD8
[2]; Patient 1 (ALK), RPRPSQPSSL expanded
  Average Spots Forming Units (2 wells)/20 000 CD8^+ T cells: 5.5 Spots Forming Units/20 000 CD8
[2]; Patient 2 (ALK), IVRCIGVSL expanded
  Average Spots Forming Units (2 wells)/20 000 CD8^+ T cells: 56 Spots Forming Units/20 000 CD8
[2]; Patient 2 (ALK), RPRPSQPSSL expanded
  Average Spots Forming Units (2 wells)/20 000 CD8^+ T cells: 1.5 Spots Forming Units/20 000 CD8
[2]; Patient 3 (ALK), IVRCIGVSL expanded
  Average Spots Forming Units (2 wells)/20 000 CD8^+ T cells: 12 Spots Forming Units/20 000 CD8
[2]; Patient 3 (ALK), RPRPSQPSSL expanded
  Average Spots Forming Units (2 wells)/20 000 CD8^+ T cells: 4 Spots Forming Units/20 000 CD8
[2]; Patient 4 (ALK), RPRPSQPSSL expanded
  Average Spots Forming Units (2 wells)/20 000 CD8^+ T cells: 0 Spots Forming Units/20 000 CD8
[2]; Patient 5 (KRASG12V), RPRPSQPSSL expanded
  Average Spots Forming Units (2 wells)/20 000 CD8^+ T cells: 1 Spots Forming Units/20 000 CD8
[2]; Patient 6 (EGFR del exon19), IVRCIGVSL expanded
  Average Spots Forming Units (2 wells)/20 000 CD8^+ T cells: 146 Spots Forming Units/20 000 CD8
[2]; Patient 6 (EGFR del exon19), RPRPSQPSSL expanded
  Average Spots Forming Units (2 wells)/20 000 CD8^+ T cells: 11.5 Spots Forming Units/20 000 CD8
[2]; Patient 7 (KRASG12D), IVRCIGVSL expanded
  Average Spots Forming Units (2 wells)/20 000 CD8^+ T cells: 0.5 Spots Forming Units/20 000 CD8
[2]; Patient 7 (KRASG12D), RPRPSQPSSL expanded
  Average Spots Forming Units (2 wells)/20 000 CD8^+ T cells: 7.5 Spots Forming Units/20 000 CD8
[2]; Patient 8 (EGFR del exon19), IVRCIGVSL expanded
  Average Spots Forming Units (2 wells)/20 000 CD8^+ T cells: 2 Spots Forming Units/20 000 CD8
[2]; Patient 8 (EGFR del exon19), RPRPSQPSSL expanded
  Average Spots Forming Units (2 wells)/20 000 CD8^+ T cells: 9.5 Spots Forming Units/20 000 CD8

## AMLDLLHVA
[3]
  ALK-specific immune responses in vaccinated transgenic mice: developed ALK-specific immune responses
